In patent US20100099627A1 (YEDA RESEARCH AND DEVELOPMENT, published 2010):
Results are given in words; binding and its absence hold for the method and conditions named. In cells and extracts the contact can be indirect. Some entries that bind do so weakly or less than the wild type. Where a sequence is shown, tags or fusion partners need not be part of it.

By UniProt entry, the sequences of proteins in these tests, tags left out.
UniProt O95373: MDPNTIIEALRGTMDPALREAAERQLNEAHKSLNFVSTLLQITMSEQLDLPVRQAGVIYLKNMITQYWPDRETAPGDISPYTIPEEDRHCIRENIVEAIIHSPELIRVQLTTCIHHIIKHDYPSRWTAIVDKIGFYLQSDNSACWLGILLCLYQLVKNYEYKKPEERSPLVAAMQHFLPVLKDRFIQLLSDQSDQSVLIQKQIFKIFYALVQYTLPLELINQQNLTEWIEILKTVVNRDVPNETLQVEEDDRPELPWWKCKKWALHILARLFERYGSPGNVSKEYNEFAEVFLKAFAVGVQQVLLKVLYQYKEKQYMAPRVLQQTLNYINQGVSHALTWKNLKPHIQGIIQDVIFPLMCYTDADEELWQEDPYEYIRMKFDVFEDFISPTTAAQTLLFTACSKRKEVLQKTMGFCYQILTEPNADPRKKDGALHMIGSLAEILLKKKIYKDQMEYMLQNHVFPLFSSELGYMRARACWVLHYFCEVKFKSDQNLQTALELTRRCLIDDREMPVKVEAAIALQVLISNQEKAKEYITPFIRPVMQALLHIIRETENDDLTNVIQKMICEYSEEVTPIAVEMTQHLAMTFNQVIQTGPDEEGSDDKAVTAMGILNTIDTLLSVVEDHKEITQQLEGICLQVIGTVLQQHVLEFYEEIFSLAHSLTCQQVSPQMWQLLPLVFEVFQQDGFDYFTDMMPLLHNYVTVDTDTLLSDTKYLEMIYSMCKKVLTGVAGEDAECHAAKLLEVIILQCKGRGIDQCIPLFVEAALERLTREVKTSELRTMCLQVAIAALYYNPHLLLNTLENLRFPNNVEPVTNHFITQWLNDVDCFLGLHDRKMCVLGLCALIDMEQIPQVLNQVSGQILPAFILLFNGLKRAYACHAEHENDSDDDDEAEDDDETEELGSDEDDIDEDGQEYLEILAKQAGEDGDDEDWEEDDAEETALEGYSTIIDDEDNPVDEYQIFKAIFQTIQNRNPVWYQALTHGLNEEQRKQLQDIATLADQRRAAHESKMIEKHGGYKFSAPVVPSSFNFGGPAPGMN

B1: 2GFP-SPS (peptide, not shown: large carriers)
chain: LDQLNHILGILGSPSQEDL
modifications: SPS peptide phosphorylated upon stimulation with EGF or VOOH
B2: 2GFP-EPE (peptide, not shown: large carriers)
chain: LDQLNHILGILGEPEQEDL

Target: importin-7 (mammalian (e.g. human)) (UniProt O95373)
Assay: co-immunoprecipitation with anti GFP Ab from HeLa cells, without EGF stimulation

Binder | binding
B1 | binds
B2 | binds
